Experimental data: PubChem BioAssay AID1259424 (University of Nebraska Medical Center, 2018)

Test: 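Find knockdowns that reproduce the expression shifts seen after KSR1 loss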 (primary screen)
System: human HCT116 colon cancer cells
Reagents: siRNA pool against human genes, 50 nM
Read-out: 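Log2 levels of six mRNAs (branched-DNA multiplex), adjusted by two reference genes and the non-targeting median, then scored against the average KSR1 knockdown pattern as Pearson r and euclidean distance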
Scale: mean correlation with KSR1 profile: higher = expression change more like KSR1 knockdown; mean distance from KSR1 profile: higher = expression change less like KSR1 knockdown
Shown is a random part of about 14,000 deposited reagents. 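Higher correlation or smaller distance means closer resemblance to KSR1 loss; control wells, including KSR1 knockdowns, recur on many plates.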 Not all columns of the deposit are shown. Not given: the time to read-out.

FBXL2 gave mean correlation with KSR1 profile -0.482; mean distance from KSR1 profile 1.71.
ACOX2 gave mean correlation with KSR1 profile -0.182; mean distance from KSR1 profile 4.82.
For SLC26A6 the deposit lists mean correlation with KSR1 profile 0.0159; mean distance from KSR1 profile 2.36.
Against FAM3A the deposit lists mean correlation with KSR1 profile -0.018; mean distance from KSR1 profile 1.73.
Against HSPB3, the entry reads mean correlation with KSR1 profile -0.366; mean distance from KSR1 profile 3.49.
Against KLRC3, the entry reads mean correlation with KSR1 profile 0.561; mean distance from KSR1 profile 1.15.
With knock-down of ANGPT2 the results were mean correlation with KSR1 profile -0.523; mean distance from KSR1 profile 3.26.
With knock-down of PEX10 the results were mean correlation with KSR1 profile -0.179; mean distance from KSR1 profile 1.22.
Depletion of NAGK gave: mean correlation with KSR1 profile 0.511; mean distance from KSR1 profile 1.49.
Against MCM2, the values are mean correlation with KSR1 profile 0.677; mean distance from KSR1 profile 1.05.
With knock-down of NR2C2 the results were mean correlation with KSR1 profile -0.763; mean distance from KSR1 profile 3.72.
Silencing of LDAF1 gave: mean correlation with KSR1 profile 0.121; mean distance from KSR1 profile 1.33.
HACL1 scored mean correlation with KSR1 profile -0.0695; mean distance from KSR1 profile 1.72.
After knock-down of GNAI3, the record shows mean correlation with KSR1 profile 0.804; mean distance from KSR1 profile 1.
Against FUT2 the deposit lists mean correlation with KSR1 profile -0.626; mean distance from KSR1 profile 2.51.
Silencing of PAX1 resulted in: mean correlation with KSR1 profile 0.879; mean distance from KSR1 profile 2.42.
For CWC25, the entry reads mean correlation with KSR1 profile -0.139; mean distance from KSR1 profile 2.55.
CNGB1 scored mean correlation with KSR1 profile -0.623; mean distance from KSR1 profile 1.82.
Silencing of TACR2 gave: mean correlation with KSR1 profile 0.262; mean distance from KSR1 profile 3.95.
With knock-down of SHOX2 the results were mean correlation with KSR1 profile 0.0369; mean distance from KSR1 profile 2.08.
With knock-down of METTL3, the screen gave mean correlation with KSR1 profile -0.641; mean distance from KSR1 profile 2.67.
Against NPPB the deposit lists mean correlation with KSR1 profile 0.682; mean distance from KSR1 profile 1.18.
With knock-down of TBC1D10A the results were mean correlation with KSR1 profile 0.566; mean distance from KSR1 profile 2.27.
Silencing of CYB5R2 came out at: mean correlation with KSR1 profile -0.215; mean distance from KSR1 profile 1.93.
TGFBR2 showed mean correlation with KSR1 profile 0.00493; mean distance from KSR1 profile 2.04.
Knock-down of FABP2 resulted in: mean correlation with KSR1 profile -0.611; mean distance from KSR1 profile 1.81.
Silencing of ARB2A came out at: mean correlation with KSR1 profile 0.958; mean distance from KSR1 profile 0.486.
With knock-down of DMRTB1, the record shows mean correlation with KSR1 profile -0.048; mean distance from KSR1 profile 4.29.

Sorted by “mean distance from KSR1 profile” (descending): 4 of the entries above.
METTL3 | mean correlation with KSR1 profile = -0.641; mean distance from KSR1 profile = 2.67
TBC1D10A | mean correlation with KSR1 profile = 0.566; mean distance from KSR1 profile = 2.27
SHOX2 | mean correlation with KSR1 profile = 0.0369; mean distance from KSR1 profile = 2.08
NPPB | mean correlation with KSR1 profile = 0.682; mean distance from KSR1 profile = 1.18
